Assay: Hypoglycemic clamp: plasma glucose levels
Assay type: in vivo, human
Conditions: C-peptide undetectable, n=5
[1] = Visit 5, 200 mg GABA per day, event 2.5 mmol/L
[2] = Visit 5, 200 mg GABA per day, event 5.5 mmol/L
[3] = Visit 5, 200 mg GABA per day, event Baseline
[4] = Visit 5, 200 mg GABA per day, event Diff 2.5-5.5 mmol/L
[5] = Visit 7, 600 mg GABA per day, event 2.5 mmol/L
[6] = Visit 7, 600 mg GABA per day, event 5.5 mmol/L
[7] = Visit 7, 600 mg GABA per day, event Baseline
[8] = Visit 7, 600 mg GABA per day, event Diff 2.5-5.5 mmol/L
[9] = Visit 9, 1200 mg GABA per day, event 2.5 mmol/L
[10] = Visit 9, 1200 mg GABA per day, event 5.5 mmol/L
[11] = Visit 9, 1200 mg GABA per day, event Baseline
[12] = Visit 9, 1200 mg GABA per day, event Diff 2.5-5.5 mmol/L

## NCCCC(=O)O [GABA, Gamma-amino butyric acid]
[1]
  Glucose levels, change from baseline, Mean: −0.16 mmol(L
  Glucose levels, change from baseline, Median: −0.20 mmol(L
  Glucose levels, observed value, Mean: 2.52 mmol(L
  Glucose levels, observed value, Median: 2.60 mmol(L
[2]
  Glucose levels, change from baseline, Mean: −0.36 mmol(L
  Glucose levels, change from baseline, Median: −0.10 mmol(L
  Glucose levels, observed value, Mean: 5.18 mmol(L
  Glucose levels, observed value, Median: 5.30 mmol(L
[3]
  Glucose levels, change from baseline, Mean: −0.28 mmol(L
  Glucose levels, change from baseline, Median: −0.40 mmol(L
[4]
  Glucose levels, change from baseline, Mean: 0.20 mmol(L
  Glucose levels, change from baseline, Median: 0.10 mmol(L
  Glucose levels, observed value, Mean: −2.66 mmol(L
  Glucose levels, observed value, Median: −2.90 mmol(L
[5]
  Glucose levels, change from baseline, Mean: 0.00 mmol(L
  Glucose levels, change from baseline, Median: 0.00 mmol(L
  Glucose levels, observed value, Mean: 2.68 mmol(L
  Glucose levels, observed value, Median: 2.70 mmol(L
[6]
  Glucose levels, change from baseline, Mean: 0.22 mmol(L
  Glucose levels, change from baseline, Median: 0.00 mmol(L
  Glucose levels, observed value, Mean: 5.76 mmol(L
  Glucose levels, observed value, Median: 5.80 mmol(L
[7]
  Glucose levels, change from baseline, Mean: 0.40 mmol(L
  Glucose levels, change from baseline, Median: 1.70 mmol(L
[8]
  Glucose levels, change from baseline, Mean: −0.22 mmol(L
  Glucose levels, change from baseline, Median: −0.10 mmol(L
  Glucose levels, observed value, Mean: −3.08 mmol(L
  Glucose levels, observed value, Median: −3.20 mmol(L
[9]
  Glucose levels, change from baseline, Mean: 0.02 mmol(L
  Glucose levels, change from baseline, Median: 0.00 mmol(L
  Glucose levels, observed value, Mean: 2.70 mmol(L
  Glucose levels, observed value, Median: 2.70 mmol(L
[10]
  Glucose levels, change from baseline, Mean: −0.24 mmol(L
  Glucose levels, change from baseline, Median: −0.40 mmol(L
  Glucose levels, observed value, Mean: 5.30 mmol(L
  Glucose levels, observed value, Median: 5.30 mmol(L
[11]
  Glucose levels, change from baseline, Mean: 0.00 mmol(L
  Glucose levels, change from baseline, Median: 1.30 mmol(L
[12]
  Glucose levels, change from baseline, Mean: 0.26 mmol(L
  Glucose levels, change from baseline, Median: 0.60 mmol(L
  Glucose levels, observed value, Mean: −2.60 mmol(L
  Glucose levels, observed value, Median: −2.60 mmol(L

— patent US20230210797A1, “PREVENTING AND TREATING HYPOGLYCEMIA” (DIAMYD MEDICAL AB, priority 2019, published 2023)
